For this assay, the target named is T1, Peroxiredoxin 1 (human (endogenous in DOK cells and in human OLK tissue)) (UniProt Q06830).
T1 sequence: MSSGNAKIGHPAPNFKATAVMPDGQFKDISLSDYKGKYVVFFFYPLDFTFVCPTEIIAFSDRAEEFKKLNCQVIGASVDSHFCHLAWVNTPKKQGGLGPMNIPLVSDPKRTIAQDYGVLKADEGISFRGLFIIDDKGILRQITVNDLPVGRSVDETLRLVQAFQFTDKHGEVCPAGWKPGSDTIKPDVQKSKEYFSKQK
Briefly: proximity ligation; Duolink in situ PLA on sections of human OLK tissues of smokers; primary antibodies against Prx1 and CFL1, TPM3 or PPP2R1A, mouse- or rabbit-derived PLA probes; fluorescence microscopy.

The chains behind the UniProt entries cited, without tags or fusion partners.
UniProt P23528: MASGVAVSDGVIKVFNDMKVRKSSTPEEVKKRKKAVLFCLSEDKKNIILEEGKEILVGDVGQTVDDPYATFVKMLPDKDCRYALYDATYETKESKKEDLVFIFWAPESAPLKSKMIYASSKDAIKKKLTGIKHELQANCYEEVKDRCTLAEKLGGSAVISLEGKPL
UniProt P30153: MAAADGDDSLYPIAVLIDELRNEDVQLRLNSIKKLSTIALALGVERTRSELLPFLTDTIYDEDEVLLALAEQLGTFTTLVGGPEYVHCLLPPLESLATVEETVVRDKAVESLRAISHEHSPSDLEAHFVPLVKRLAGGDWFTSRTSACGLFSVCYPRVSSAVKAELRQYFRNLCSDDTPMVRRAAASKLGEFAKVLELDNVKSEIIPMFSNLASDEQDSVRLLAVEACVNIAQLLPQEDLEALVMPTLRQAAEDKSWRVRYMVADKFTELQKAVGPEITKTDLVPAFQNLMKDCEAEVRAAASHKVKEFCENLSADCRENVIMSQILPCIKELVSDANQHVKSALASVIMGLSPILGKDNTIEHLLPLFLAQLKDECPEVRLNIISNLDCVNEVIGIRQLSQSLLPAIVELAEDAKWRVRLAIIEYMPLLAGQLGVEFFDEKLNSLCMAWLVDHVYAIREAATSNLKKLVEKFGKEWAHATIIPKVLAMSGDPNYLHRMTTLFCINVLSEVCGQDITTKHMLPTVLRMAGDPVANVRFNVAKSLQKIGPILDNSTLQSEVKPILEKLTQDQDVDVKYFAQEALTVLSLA

Results on 2 substances are retold here after paper PMC8186375.

No constants are given. Whether binding was seen depends on the method and setting. In cells and extracts the contact can be indirect. Some binding calls cover weakened binding; strength is not graded here.

For the substance Cofilin-1 (from UniProt P23528 1-166), the binding result was “binds”.
In the case of “Serine/threonine-protein phosphatase 2A 65 kDa regulatory subunit A alpha isoform (from UniProt P30153 1-589)” it was “binds”.
